Data as given in PubChem BioAssay AID1224828 (NIAID, 2016).
The deposit covers about 17,000 reagents; this is a part drawn at random. 762 of them (4.5%) count as active. 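Active calls include both raised and lowered p65 entry, mostly lowered; wells with fewer than 50 cells lack a z-score.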 Raw values are not corrected between plates. Unmarked entries are inactive.

- Test: 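Find genes required for NF-kappaB p65 moving into the nucleus after LPS in mouse macrophages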 (primary screen)
- System: mouse RAW264.7 G9 macrophage reporter cells (GFP-p65, Tnf promoter-mCherry)
- Reagents: siRNA pool against mouse genes, 100 nM
- Duration: 2 days siRNA transfection, then 40 min LPS before fixation
- Conditions: LPS (Salmonella minnesota R595) at 10 ng/ml
- Detection: 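Imaged p65 nuclear translocation ratio, normalised to the plate median, converted to robust z-scores and averaged across two replicates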
- Direction: p65 translocation robust z-score: higher = more nuclear NF-kappaB p65 after LPS than the plate median; nuclear/cytoplasmic p65 ratio: higher = more nuclear NF-kappaB p65
- Active means: 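Active if robust z is above 3.3 (negative regulators) or below -1.56, the Tlr4 control median (positive regulators); activity score 50 or more; control wells not called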
- Meaning of the calls: active = hit (p65 shift raised or lowered); inactive = no clear change

no.	Gene	p65 translocation robust z-score	nuclear/cytoplasmic p65 ratio, rep 1	nuclear/cytoplasmic p65 ratio, rep 2	low cell count flag
1	Pdxdc1 (pyridoxal-dependent decarboxylase domain containing 1)	-1.07	1.08	1.38	enough cells to score
2	Zfp354a (zinc finger protein 354A)	-1.17	1.43	1.26	enough cells to score
3	Smyd5 (SET and MYND domain containing 5)		1.67	1.04	fewer than 50 cells per well; well left out of scoring
4	Cd38 (CD38 antigen)	-0.03	1.37	1.46	enough cells to score
5	4921517D22Rik (RIKEN cDNA 4921517D22 gene)		1.5	1.14	fewer than 50 cells per well; well left out of scoring
6	Elp2 (elongator acetyltransferase complex subunit 2)	-0.12	1.44	1.63	enough cells to score
7	Ube4a (ubiquitination factor E4A)	1.54	1.68	1.76	enough cells to score
8	Usp1 (ubiquitin specific peptidase 1)	1.52	1.66	1.78	enough cells to score
9	Foxp4 (forkhead box P4)	0.13	1.65	1.44	enough cells to score
10	Trip11 (thyroid hormone receptor interactor 11)	2.23	1.9	2	enough cells to score
11	Ap2b1 (adaptor-related protein complex 2, beta 1 subunit)	-0.88	1.5	1.48	enough cells to score
12	Tle2 (transducin-like enhancer of split 2)	1.68	1.68	1.84	enough cells to score
13	Prkaca (protein kinase, cAMP dependent, catalytic, alpha)		1.67	1.22	fewer than 50 cells per well; well left out of scoring
14	Rps6ka2 (ribosomal protein S6 kinase A2)	1.66	1.88	1.64	enough cells to score
15	Vmn1r22 (vomeronasal 1 receptor 22)	-0.55	1.32	1.19	enough cells to score
16	Otop2 (otopetrin 2)	-0.1	1.35	1.29	enough cells to score
17	Tbc1d10a (TBC1 domain family, member 10a)		1.35	1.78	fewer than 50 cells per well; well left out of scoring
18	Fabp7 (fatty acid binding protein 7, brain)	1.61	1.65	1.6	enough cells to score
19	Hes7 (hes family bHLH transcription factor 7)	-1.58 (active)	1.29	1.11	enough cells to score
20	Tspyl3 (TSPY-like 3)	0.1	1.57	1.57	enough cells to score
21	Zcrb1 (zinc finger CCHC-type and RNA binding motif 1)	0.14	1.42	1.34	enough cells to score
22	Slc6a13	1.96	1.66	1.28	enough cells to score
23	Arl5c (ADP-ribosylation factor-like 5C)		1.36	1.32	fewer than 50 cells per well; well left out of scoring
24	Il12a (interleukin 12a)	0.29	1.5	1.38	enough cells to score
25	Anks1 (ankyrin repeat and SAM domain containing 1)	0.27	1.48	1.89	enough cells to score
26	Bcap29 (B cell receptor associated protein 29)	-0.52	1.48	1.59	enough cells to score
27	Apof (apolipoprotein F)	-0.29	1.57	1.58	enough cells to score
28	Slco5a1		1.71	1.62	fewer than 50 cells per well; well left out of scoring
29	Maz		1.18	1.15	fewer than 50 cells per well; well left out of scoring
30	Zfp459 (zinc finger protein 459)	-0.94	1.35	1.36	enough cells to score
31	Pcdh12 (protocadherin 12)	-0.16	1.43	1.39	enough cells to score
32	Rgl1 (ral guanine nucleotide dissociation stimulator,-like 1)		1.32	1.95	fewer than 50 cells per well; well left out of scoring
33	Kifbp (kinesin family binding protein)	0.16	1.42	1.65	enough cells to score
34	Trim68 (tripartite motif-containing 68)	-1.53	1.3	1.32	enough cells to score
35	H1f6 (H1.6 linker histone, cluster member)	-0.35	1.44	1.63	enough cells to score
36	Vmn1r177 (vomeronasal 1 receptor 177)	0.34	1.36	1.33	enough cells to score
37	Ccdc169 (coiled-coil domain containing 169)	1.77	1.74	1.63	enough cells to score
38	Trappc4 (trafficking protein particle complex 4)	0.8	1.36	1.28	enough cells to score
39	Or4c124 (olfactory receptor family 4 subfamily C member 124)	0.4	1.85	1.52	enough cells to score
40	Tmem229a (transmembrane protein 229A)	0.55	1.38	1.59	enough cells to score
